Values from PubChem BioAssay AID743454 (Peter MacCallum Cancer Centre, 2014).

Purpose: 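Genes whose loss kills vorinostat-resistant colon cancer cells under vorinostat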 (primary screen)
System: human HCT116-VR colon cancer cells, selected for vorinostat resistance
Knock-down reagent: siRNA pool against human genes, 40 nM siRNA pool
Time to read-out: vorinostat for 24 h, read-out about 72 h after transfection
Challenge: vorinostat at 2.5 µM final
Measurement: 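Cell viability by CellTiter-Fluor and caspase 3/7 activity by luminescence, each scaled to mock wells per plate, duplicates averaged, then robust z-scored over all plates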
Scale: viability robust z-score: higher = more viable cells than screen typical; caspase robust z-score: higher = more caspase 3/7 activity than screen typical
Call rule: 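a knock-down is a hit when classed RV1 or RV2 for lowered viability, or CA1 or CA2 for caspase activation; those lethal without drug were dropped; hits were retested singly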
This is a random part of about 18,000 deposited reagents. 450 of all reagents (2.5%) were called active. 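Single biological run; no consistent viability z cut-off exists, so the class columns, not z-scores, define the calls.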 Unmarked entries are inactive. Reagent sequences are not shown.

no.	Gene	viability hit class	caspase hit class	viability robust z-score	caspase robust z-score
1	FITM2 (fat storage inducing transmembrane protein 2)	no change	no change	0.12	-0.27
2	GPAM (glycerol-3-phosphate acyltransferase, mitochondrial)	no change	no change	1.72	0.07
3	CROT (carnitine O-octanoyltransferase)	no change	no change	-0.45	-0.83
4	SERTAD3 (SERTA domain containing 3)	no change	no change	-0.36	0.67
5	TMEM101 (transmembrane protein 101)	no change	no change	0.28	-0.75
6	CRB3 (crumbs cell polarity complex component 3)	no change	no change	-3.48	0.24
7	B3GALT6 (beta-1,3-galactosyltransferase 6)	no change	no change	0.84	-0.29
8	MANEAL (mannosidase endo-alpha like)	no change	no change	-0.8	3.54
9	F8A1 (coagulation factor VIII associated 1)	no change	no change	0.08	-0.23
10	GTF2H2C_2 (GTF2H2 family member C, copy 2)	no change	no change	1.12	-0.78
11	RPS12 (ribosomal protein S12)	no change	no change	-3.54	-1.62
12	MAB21L4 (mab-21 like 4)	no change	no change	0.86	3.46
13	BCS1L (BCS1 ubiquinol-cytochrome c reductase complex chaperone)	no change	no change	-0.13	-0.58
14	CYP11A1 (cytochrome P450 family 11 subfamily A member 1)	no change	no change	0.3	-0.34
15	OR8K3	no change	no change	-1.42	0.09
16	MB (myoglobin)	no change	no change	-0.4	-0.98
17	CFHR3 (complement factor H related 3)	no change	no change	-0.08	-0.4
18	SPRY4 (sprouty RTK signaling antagonist 4)	no change	no change	0.3	1.92
19	P2RY11 (purinergic receptor P2Y11)	no change	no change	-0.22	-0.98
20	MARCHF8 (membrane associated ring-CH-type finger 8)	no change	no change	-0.5	3.17
21	ZNF500 (zinc finger protein 500)	no change	no change	0.26	0.33
22	OR52A5 (olfactory receptor family 52 subfamily A member 5)	no change	no change	0.13	-0.06
23	COL3A1 (collagen type III alpha 1 chain)	no change	no change	-0.75	-0.46
24	RAB5IF (RAB5 interacting factor)	no change	no change	-1.73	-0.39

A few values from the entries so far:
Under “caspase hit class”, OR52A5 (olfactory receptor family 52 subfamily A member 5) has no change
For “caspase robust z-score”, SPRY4 (sprouty RTK signaling antagonist 4) reads 1.92
Entry of GPAM (glycerol-3-phosphate acyltransferase, mitochondrial) under “caspase robust z-score”: 0.07
Under “viability robust z-score”, CROT (carnitine O-octanoyltransferase) is entered as -0.45
Under “viability hit class”, B3GALT6 (beta-1,3-galactosyltransferase 6) shows no change
TMEM101 (transmembrane protein 101), viability hit class: no change

The listing continues.
no.	Gene	viability hit class	caspase hit class	viability robust z-score	caspase robust z-score
25	POLE (DNA polymerase epsilon, catalytic subunit)	no change	no change	-0.42	3.98
26	BTF3 (basic transcription factor 3)	no change	no change	-0.78	1.57
27	PRMT9 (protein arginine methyltransferase 9)	no change	no change	-0.64	0.22
28	ZNF22 (zinc finger protein 22)	no change	no change	-0.32	-0.93
29	DBX2 (developing brain homeobox 2)	no change	no change	1.45	0.4
30	ATG16L1 (autophagy related 16 like 1)	no change	no change	1.06	0.45
31	PIH1D2 (PIH1 domain containing 2)	no change	no change	-0.72	4.6
32	OR52A1 (olfactory receptor family 52 subfamily A member 1)	no change	no change	1.34	-0.44
33	CYCS (cytochrome c, somatic)	no change	no change	-1.06	-0.11
34	ZNF117 (zinc finger protein 117)	no change	no change	-1.54	-0.48
35	JOSD1 (Josephin domain containing 1)	no change	no change	1.42	-0.06
36	ERLEC1 (endoplasmic reticulum lectin 1)	no change	no change	-1.44	0.4
37	ECPAS (Ecm29 proteasome adaptor and scaffold)	no change	no change	0.26	0.09
38	NSD2 (nuclear receptor binding SET domain protein 2)	no change	no change	-1.06	-0.39
39	HORMAD2 (HORMA domain containing 2)	no change	no change	-0.09	-1.04
40	PATZ1 (POZ/BTB and AT hook containing zinc finger 1)	no change	no change	0.55	0.02
41	RP1 (RP1 axonemal microtubule associated)	no change	no change	1	-0.1
42	RIGI (RNA sensor RIG-I)	no change	no change	0.7	0.34
43	DAP (death associated protein)	no change	no change	-1.44	-0.76
44	POLQ (DNA polymerase theta)	no change	no change	-0.18	-0.16
45	SCMH1 (Scm polycomb group protein homolog 1)	no change	no change	0.66	0.43
46	ATF2 (activating transcription factor 2)	no change	no change	-0.54	-0.64
47	PAQR8 (progestin and adipoQ receptor family member 8)	no change	no change	-0.51	1.83
48	NMU (neuromedin U)	no change	no change	-0.73	-1.28
49	HOXA1 (homeobox A1)	no change	no change	-0.48	-0.22
50	EMB (embigin)	no change	no change	-0.44	0.62
51	TMEM237 (transmembrane protein 237)	no change	no change	0.82	0.01
52	NIT2 (nitrilase family member 2)	no change	no change	-0.18	-0.16
53	GPR173 (G protein-coupled receptor 173)	no change	no change	-0.15	1.01
54	SKP2 (S-phase kinase associated protein 2)	no change	no change	0.2	-0.37
55	ZDHHC20 (zDHHC palmitoyltransferase 20)	no change	no change	-0.24	-0.78
56	PIK3AP1 (phosphoinositide-3-kinase adaptor protein 1)	no change	no change	-0.64	1.06
57	ZNF583 (zinc finger protein 583)	no change	no change	-0.38	-0.92
